Results are given in words; binding and its absence hold for the method and conditions named.
B1: Lysozyme binder VH14.1 / VL14.1 (scFv, V domains shown)
VH: QVQLQESGPGLVKPSETLSLVCTVSGGSLSFSYWGWIRQPPGKGLEWIGYISHRGTDYNSSLQSRVTISADTSKNQFSLKLSSVTAADTAVYYCARSFSNSFFFGYWGQGT
VL: SSELTQDPAVSVAFGQTVRITCQGDSLRSSYASWYQQKPGQAPLLVIYGENSRPSGIPDRFSGSSSGNTASLTITGAQAEDEADYYCNSRDSRGTHLEVFGG
notes: Human scFv in pHEN1 on phage; Paired by common number
B2: Lysozyme binder VH13.1 / VL13.1 (scFv, V domains shown)
VH: QVQLVQSGAEVKKPGQSLMISCQGSGYSFSNYWIGWVRQMPGKGLEWMGIIYPGDSDTRYSPSFQGQVTISADKSISTAYLHWSSLKASDTALYYCARLVGGTPAYWGQGT
VL: HVILTQPASVSGSPGQSITISCTGSSRDVGGYNYVSWYQHHPGKAPKLLISEVTNRPSGVSNRFSGSKSGNTASLTISGLQAEDEADYFCASYTSSKTYVFGG

What was measured:
Assay in all cases: phage ELISA
[1] = target: GAP-DH (glyceraldehyde-3-phosphate dehydrogenase)
cytochrome C = target: cytochrome C
[2] = target: keyhole limpet haemocyanin (keyhole limpet)
thyroglobulin = target: thyroglobulin
trypsin inhibitor = target: trypsin inhibitor

Binder	binding [1]	binding (cytochrome C)	binding [2]	binding (thyroglobulin)	binding (trypsin inhibitor)
B1	no binding (tested: 100 ug/ml for coating)	no binding (tested: 100 ug/ml for coating)	no binding (tested: 100 ug/ml for coating)	no binding (tested: 100 ug/ml for coating)	no binding (tested: 100 ug/ml for coating)
B2	no binding (tested: 100 ug/ml for coating)	no binding (tested: 100 ug/ml for coating)	no binding (tested: 100 ug/ml for coating)	no binding (tested: 100 ug/ml for coating)	no binding (tested: 100 ug/ml for coating)

Source: patent US6806079
